In article PMC11701798:
Results are given in words; binding and its absence hold for the method and conditions named. In cells and extracts the contact can be indirect. These calls come from enrichment with a bait or labelling near it, and not all partners need be listed. Where a sequence is shown, tags or fusion partners need not be part of it.

The chains behind the UniProt entries cited, without tags or fusion partners.
UniProt Q8GY23: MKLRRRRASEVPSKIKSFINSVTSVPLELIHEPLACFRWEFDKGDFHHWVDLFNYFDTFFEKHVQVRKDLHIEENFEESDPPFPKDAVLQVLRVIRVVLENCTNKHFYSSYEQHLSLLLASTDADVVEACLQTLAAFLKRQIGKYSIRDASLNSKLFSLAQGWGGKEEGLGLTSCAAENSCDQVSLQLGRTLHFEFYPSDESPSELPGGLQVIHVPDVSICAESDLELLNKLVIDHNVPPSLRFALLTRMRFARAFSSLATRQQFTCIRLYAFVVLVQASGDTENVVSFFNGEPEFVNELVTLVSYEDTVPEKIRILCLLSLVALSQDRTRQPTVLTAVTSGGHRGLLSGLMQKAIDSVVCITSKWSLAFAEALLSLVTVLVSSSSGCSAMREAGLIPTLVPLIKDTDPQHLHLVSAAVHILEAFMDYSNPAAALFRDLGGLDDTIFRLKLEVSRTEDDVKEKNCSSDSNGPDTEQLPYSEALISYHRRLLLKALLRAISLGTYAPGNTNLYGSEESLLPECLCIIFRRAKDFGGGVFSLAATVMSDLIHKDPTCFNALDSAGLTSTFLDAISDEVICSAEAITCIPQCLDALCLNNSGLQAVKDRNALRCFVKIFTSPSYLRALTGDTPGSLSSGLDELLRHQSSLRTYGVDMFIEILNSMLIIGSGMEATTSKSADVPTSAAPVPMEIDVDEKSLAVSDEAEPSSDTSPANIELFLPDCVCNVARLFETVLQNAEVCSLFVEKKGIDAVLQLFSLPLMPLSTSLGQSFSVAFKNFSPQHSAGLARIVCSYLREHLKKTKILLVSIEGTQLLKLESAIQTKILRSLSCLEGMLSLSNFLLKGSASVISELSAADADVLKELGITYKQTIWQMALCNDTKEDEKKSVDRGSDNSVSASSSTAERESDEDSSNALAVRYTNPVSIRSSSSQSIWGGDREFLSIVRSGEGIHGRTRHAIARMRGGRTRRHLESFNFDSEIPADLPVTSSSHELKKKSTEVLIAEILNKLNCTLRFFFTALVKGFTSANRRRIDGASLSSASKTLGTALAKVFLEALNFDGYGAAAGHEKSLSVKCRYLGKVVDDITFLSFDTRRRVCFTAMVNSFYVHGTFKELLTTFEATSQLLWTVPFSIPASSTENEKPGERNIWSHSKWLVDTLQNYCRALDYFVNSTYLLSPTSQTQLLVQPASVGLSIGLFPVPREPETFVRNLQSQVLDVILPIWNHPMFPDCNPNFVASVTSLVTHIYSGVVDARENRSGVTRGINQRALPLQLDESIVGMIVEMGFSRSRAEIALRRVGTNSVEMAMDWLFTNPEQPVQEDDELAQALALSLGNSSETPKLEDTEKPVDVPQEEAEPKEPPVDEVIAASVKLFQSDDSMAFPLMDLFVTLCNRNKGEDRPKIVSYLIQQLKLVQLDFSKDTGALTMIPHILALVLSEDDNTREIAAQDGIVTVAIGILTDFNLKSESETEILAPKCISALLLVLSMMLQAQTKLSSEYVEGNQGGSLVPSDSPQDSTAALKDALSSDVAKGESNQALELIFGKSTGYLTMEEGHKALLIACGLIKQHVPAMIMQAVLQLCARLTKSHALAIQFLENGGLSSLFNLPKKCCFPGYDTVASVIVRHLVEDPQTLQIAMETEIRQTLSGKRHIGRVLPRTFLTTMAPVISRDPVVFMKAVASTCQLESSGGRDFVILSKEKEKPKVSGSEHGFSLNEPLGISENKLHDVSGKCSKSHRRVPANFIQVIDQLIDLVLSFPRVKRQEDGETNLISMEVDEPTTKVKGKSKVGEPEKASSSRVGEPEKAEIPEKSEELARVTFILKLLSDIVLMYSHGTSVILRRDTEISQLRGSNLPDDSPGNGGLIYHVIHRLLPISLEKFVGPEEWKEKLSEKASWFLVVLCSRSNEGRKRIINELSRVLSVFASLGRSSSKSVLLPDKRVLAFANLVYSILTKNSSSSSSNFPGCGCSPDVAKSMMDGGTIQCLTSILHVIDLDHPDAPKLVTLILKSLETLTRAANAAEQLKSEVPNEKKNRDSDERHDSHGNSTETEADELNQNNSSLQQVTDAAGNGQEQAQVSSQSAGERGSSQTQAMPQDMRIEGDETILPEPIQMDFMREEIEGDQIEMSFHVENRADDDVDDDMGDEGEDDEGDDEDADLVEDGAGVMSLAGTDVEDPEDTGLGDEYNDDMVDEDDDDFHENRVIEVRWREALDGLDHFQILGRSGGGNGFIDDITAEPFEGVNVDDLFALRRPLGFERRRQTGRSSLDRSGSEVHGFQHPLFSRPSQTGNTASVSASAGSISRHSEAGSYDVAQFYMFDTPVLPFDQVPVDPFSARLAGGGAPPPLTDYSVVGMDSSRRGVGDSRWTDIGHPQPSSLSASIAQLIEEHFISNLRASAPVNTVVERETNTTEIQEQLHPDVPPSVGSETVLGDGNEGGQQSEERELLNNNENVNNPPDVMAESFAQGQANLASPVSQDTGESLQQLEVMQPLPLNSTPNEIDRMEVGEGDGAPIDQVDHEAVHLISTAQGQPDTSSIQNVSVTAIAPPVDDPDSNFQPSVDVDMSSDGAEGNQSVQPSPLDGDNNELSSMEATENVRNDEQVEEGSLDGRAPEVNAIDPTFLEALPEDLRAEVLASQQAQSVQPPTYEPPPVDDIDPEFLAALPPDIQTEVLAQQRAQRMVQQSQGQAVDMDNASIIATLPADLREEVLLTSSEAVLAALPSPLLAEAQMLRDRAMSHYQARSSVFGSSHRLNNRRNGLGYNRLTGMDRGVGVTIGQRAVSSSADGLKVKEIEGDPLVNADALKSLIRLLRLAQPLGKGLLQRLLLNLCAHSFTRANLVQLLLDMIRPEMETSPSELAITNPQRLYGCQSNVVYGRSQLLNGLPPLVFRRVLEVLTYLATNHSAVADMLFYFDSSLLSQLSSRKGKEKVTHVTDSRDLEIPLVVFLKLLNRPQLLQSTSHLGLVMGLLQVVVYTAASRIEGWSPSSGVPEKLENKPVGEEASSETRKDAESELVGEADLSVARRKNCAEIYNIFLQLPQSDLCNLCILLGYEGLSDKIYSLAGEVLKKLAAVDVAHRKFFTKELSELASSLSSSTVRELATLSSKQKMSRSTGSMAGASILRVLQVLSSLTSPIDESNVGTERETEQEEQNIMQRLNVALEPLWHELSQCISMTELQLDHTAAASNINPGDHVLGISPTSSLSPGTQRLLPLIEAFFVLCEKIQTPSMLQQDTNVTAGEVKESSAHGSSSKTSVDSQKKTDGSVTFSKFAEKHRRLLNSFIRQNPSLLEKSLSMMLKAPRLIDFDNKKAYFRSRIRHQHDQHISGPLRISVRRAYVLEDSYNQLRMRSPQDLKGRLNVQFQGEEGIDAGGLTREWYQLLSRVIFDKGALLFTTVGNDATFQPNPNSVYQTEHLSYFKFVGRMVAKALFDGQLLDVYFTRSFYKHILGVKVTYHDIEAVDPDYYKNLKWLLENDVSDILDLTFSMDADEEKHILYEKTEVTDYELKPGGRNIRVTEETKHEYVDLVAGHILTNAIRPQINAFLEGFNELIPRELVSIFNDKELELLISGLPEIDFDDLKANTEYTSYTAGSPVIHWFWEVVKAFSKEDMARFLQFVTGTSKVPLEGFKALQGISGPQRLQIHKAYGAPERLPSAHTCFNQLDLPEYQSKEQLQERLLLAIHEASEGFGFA
UniProt P30186: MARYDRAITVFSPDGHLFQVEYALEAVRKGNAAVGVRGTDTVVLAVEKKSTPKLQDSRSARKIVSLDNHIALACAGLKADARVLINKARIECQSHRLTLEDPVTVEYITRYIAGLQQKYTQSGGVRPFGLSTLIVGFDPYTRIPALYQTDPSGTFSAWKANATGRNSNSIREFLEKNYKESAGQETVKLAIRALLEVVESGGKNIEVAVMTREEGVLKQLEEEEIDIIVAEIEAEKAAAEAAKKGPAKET
UniProt Q9MAT0: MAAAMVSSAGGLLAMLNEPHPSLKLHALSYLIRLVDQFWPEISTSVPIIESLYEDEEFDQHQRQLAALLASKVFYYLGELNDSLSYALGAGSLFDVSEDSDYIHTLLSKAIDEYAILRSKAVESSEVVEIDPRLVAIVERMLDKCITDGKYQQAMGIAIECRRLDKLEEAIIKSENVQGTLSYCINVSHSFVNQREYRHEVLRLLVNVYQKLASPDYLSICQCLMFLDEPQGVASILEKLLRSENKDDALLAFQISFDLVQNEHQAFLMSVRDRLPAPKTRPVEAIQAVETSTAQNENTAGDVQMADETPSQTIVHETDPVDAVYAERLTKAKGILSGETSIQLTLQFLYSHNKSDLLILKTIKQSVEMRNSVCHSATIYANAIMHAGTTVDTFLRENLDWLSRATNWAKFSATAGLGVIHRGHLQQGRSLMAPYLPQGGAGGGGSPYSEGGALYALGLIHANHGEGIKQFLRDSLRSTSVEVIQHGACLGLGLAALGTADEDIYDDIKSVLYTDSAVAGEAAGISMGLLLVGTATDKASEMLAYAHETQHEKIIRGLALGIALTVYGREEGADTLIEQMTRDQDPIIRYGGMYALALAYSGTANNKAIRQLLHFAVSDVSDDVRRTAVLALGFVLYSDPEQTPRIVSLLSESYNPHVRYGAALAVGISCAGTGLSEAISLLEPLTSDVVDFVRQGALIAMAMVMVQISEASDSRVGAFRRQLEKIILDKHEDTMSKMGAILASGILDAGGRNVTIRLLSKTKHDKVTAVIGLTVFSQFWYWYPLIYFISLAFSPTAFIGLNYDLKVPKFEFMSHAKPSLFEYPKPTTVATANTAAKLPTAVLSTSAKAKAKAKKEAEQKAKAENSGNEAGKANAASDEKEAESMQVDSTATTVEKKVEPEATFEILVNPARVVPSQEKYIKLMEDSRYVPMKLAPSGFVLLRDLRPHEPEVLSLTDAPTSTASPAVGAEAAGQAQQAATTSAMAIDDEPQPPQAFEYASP
UniProt Q39255: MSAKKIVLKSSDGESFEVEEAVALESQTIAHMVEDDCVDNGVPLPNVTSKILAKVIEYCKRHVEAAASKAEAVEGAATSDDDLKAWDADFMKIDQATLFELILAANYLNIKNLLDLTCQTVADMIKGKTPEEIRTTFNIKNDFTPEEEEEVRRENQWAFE

B1: CSN3, Proteasome component (PCI) domain protein AT5G14250.1 (protein, UniProt Q8W575 1-429)
chain: MIGAVNSVEAVITSIQGLSGSPEDLSALHDLLRGAQDSLRAEPGVNFSTLDQLDASKHSLGYLYFLEVLTCGPVSKEKAAYEIPIIARFINSCDAGQIRLASYKFVSLCKILKDHVIALGDPLRGVGPLLNAVQKLQVSSKRLTALHPDVLQLCLQAKSYKSGFSILSDDIVEIDQPRDFFLYSYYGGMICIGLKRFQKALELLYNVVTAPMHQVNAIALEAYKKYILVSLIHNGQFTNTLPKCASTAAQRSFKNYTGPYIELGNCYNDGKIGELEALVVARNAEFEEDKNLGLVKQAVSSLYKRNILRLTQKYLTLSLQDIANMVQLGNAKEAEMHVLQMIQDGQIHALINQKDGMVRFLEDPEQYKSSEMIEIMDSVIQRTIGLSKNLLAMDESLSCDPLYLGKVGRERQRYDFGDDFDTVPQKFSM
B2: Proteasome component (PCI) domain protein AT4G19006.1 (protein, UniProt Q8GYA6 1-386)
chain: MAALQYLESQKNAHPELGEWYNSLADLYQKKLWHQLTLKLEQFIALSVFQAGDALIQLYNNFITDFETRINLLKLAHFAVVVSRQYPEKEAAVSYLEGVIEKLKATKESRINEPISYIETQIALFKLEQGDQKECKKILDDGKSLLDSMTDIDPSVYANFFWVSSQYHKVRQEFSEFYKNALLYLAYTSVDSLSESFKLDLAFDLSLSALLGENIYNFGELLAHPILKSLLGTNVEWLYHILQAFNHGDLVQYQELCRVHNASLSAQPALVENEKKLLEKINILCLIEIIFSRPAEDRTIPLSVIAERTKLSIEDVEHLLMKSLSVHLIEGILDQVNGTVYVSWAQPRVLGIPQIKSLRDQLDSWVDKVHTTLLSVEAETPDLVAA
B3: ubiquitin‐specific protease UBP4 (enzyme, UniProt Q8LAM0 1-365)
chain: MGAAGSKLEKALGDQFPEGERYFGFENFGNTCYCNSVLQALYFCAPFREQLLEHYANNKADAEENLLTCLADLFSQISSQKKKTGVIAPKRFVQRLKKQNELFRSYMHQDAHEFLNYLLNELVEILEKETQATKADNETSSSPEKIANVLKAPLANGVHKEPIVTWVHKIFQGILTNETRCLRCETVTARDETFLDLSLDIEQNSSITSCLKNFSSTETLHAEDKFFCDKCCSLQEAQKRMKIKKPPHILVIHLKRFKYMEQLGRYKKLSYRVVFPLELKLSNTVDEYVDIEYSLFAVVVHVGSGPNHGHYVSLVKSHNHWLFFDDESVEIIEESAVQTFFGSSQEYSSNTDHGYILLYESLGTR
B4: ubiquitin‐specific protease UBP6 (enzyme, UniProt Q949Y0 1-482)
chain: MPTVSVKWQKKVLDGIEIDVSLPPYVFKAQLYDLTGVPPERQKIMVKGGLLKDDGDWAAIGVKDGQKLMMMGTADEIVKAPEKAIVFAEDLPEEALATNLGYSAGLVNLGNTCYMNSTVQCLKSVPELKSALSNYSLAARSNDVDQTSHMLTVATRELFGELDRSVNAVSPSQFWMVLRKKYPQFSQLQNGMHMQQDAEECWTQLLYTLSQSLKAPTSSEGADAVKALFGVNLQSRLHCQESGEESSETESVYSLKCHISHEVNHLHEGLKHGLKGELEKTSPALGRTALYVKESLIDSLPRYLTVQFVRFFWKRESNQKAKILRKVDYPLVLDIFDLCSEDLRKKLEAPRQKLREEEGKKLGLQTSAKSGSKDSDVKMTDAEASANGSGESSTVNPQEGTSSEKETHMTGIYDLVAVLTHKGRSADSGHYVAWVKQESGKWIQYDDDNPSMQREEDITKLSGGGDWHMAYITMYKARFVSM
B5: ubiquitin‐specific protease UBP14 (enzyme, UniProt Q8L6Y1 1-797)
chain: MELLRSNLSRVQIPEPTHRIYKHECCISFDTPRSEGGLFVDMNSFLAFGKDYVSWNYEKTGNPVYLHIKQTRKSIPEDRPLKKPTLLAIGVDGGFDNNEPEYEESYSIVILPDFVSLPFPSVELPEKVRIAVDTVVNAVGAERKEQVAAWTAEKKLISEHALTLQQIKSGIVIPPSGWKCSKCDKTENLWLNLTDGMILCGRKNWDGTGGNNHAVEHYKETAYPLAVKLGTITADLEAADVYSYPEDDSVLDPLLAEHLAHFGIDFSSMQKTEMTTAERELDQNTNFDWNRIQESGKELVPVFGPGYTGLVNLGNSCYLAATMQIVFSTHSFISRYFSHQSLKMAFEMAPADPTLDLNMQLTKLGHGLLSGKYSMPATQKDATTGDPRQEGIPPRMFKNVIAASHAEFSSMRQQDALDFFLHLVGKVERASNTTPDLDPSRSFKFGIEEKILCPSGKVGYNKREDCILSLNIPLHEATNKDELEAFHKQKAGKGLEENDMRSSDEIVRPRVPLEACLANFASSEPIEDYYSSALKGMTTAIKTTGLTSFPDYLVLHMRKFVMEEGWVPKKLDVYIDVPDVIDISHMRSKGLQPGEELLPDGVPEEVMESAQPVANEEIVAQLVSMGFSQLHCQKAAINTSNAGVEEAMNWLLSHMDDPDIDAPISHQTSDIDQSSVDTLLSFGFAEDVARKALKASGGDIEKATDWVFNNPNASVSDMDVSSSNSAQTPAQSGLPDGGGKYKLFGIVSHMGTSVHCGHYVAHILKEGRWVIFNDDKVGISTDPPKDMGYVYFFQRLD
B6: RPN1A, 26S proteasome regulatory subunit S2 1A (protein, UniProt Q9SIV2 1-891)
chain: MAPTQDPNSVGGGAKKDEATLKVPSKDPKKKDEKKDEDLSEEDLELKQNLELYVERVQDPNPELQKAALESMRQEIRASTSSMTSVPKPLKFLRPHYGTLKAFHETMADSDLKKYLSDILSVLALTMSADGERESLRFRLIGTEGDIGSWGHEYVRNLAGEIAQEYTKRQSEEASIDDLMELVQQIVAFHMKHNAETEAVDLLMDVEDLDLLLEHVDKTNFKRTCNYLTSAARYLPGPDDMLVLDISYMIYMKFEEYPNALQIALFLDNTQYVKQVFTSCTDLLKKKQFCYMIARHGITFELDDEMVADDDDREALQDIVNNTKLSEGYLTLARDIEVMEAKTPEDIYKAHLLDGRASSGASVDSARQNLAATFVNAFVNAGFGQDKLMTVPSDSTTGSSGNWLFKNKEHGKTSAAASLGMIQLWDVDSGLSQLDKYFHSNDNPIIAGALLGVGIVNCGIKNDCDPALALLGDYIDKEDSSVRIGAIMGLGISYAGSQNDQIRNKLSPILNDAKAPLDVIAFASLSLGMIYVGSCNEEVAQSIIFALMDRSEAELGDALTRFLPLGLGLLYLGKQESVEATAEVSKTFNEKIRKYCDMTLLSCAYAGTGNVLKVQDLLAQCGEHLEKGDIHQGPAVLGLAMVAMSEELGVDMEIRSLERMLQYGEQNIRRAVPLALGLLCISNPKVTVMDTLSRLSHDTDSEVAMSAIISLGLIGAGTNNARIAGMLRNLSSYYYKDMSLLFCVRIAQGLVHMGKGLLTLSPFHSERFLLSPTALAGIVTLLHACLDMKPIILGKYHYVLYFLVLAMQPRMMLTVDENLKPLSVPVRVGQAVDVVGQAGRPKTITGFQTHSTPVLLAAGERAELATDKYIPLSPILEGFIILKENPDYREE
B7: UBA1, ubiquitin‐activating enzyme 1 (enzyme, UniProt P93028 1-1080)
chain: MLHKRASEANDKNDNTIIGSDLASSKKRRIDFTESSSDKSSSILASGSSRGFHGDSVVQQIDMAFGNSNRQEIDEDLHSRQLAVYGRETMRRLFASNVLISGMHGLGAEIAKNLILAGVKSVTLHDERVVELWDLSSNFVFSEDDVGKNRADASVQKLQDLNNAVVVSSLTKSLNKEDLSGFQVVVFSDISMERAIEFDDYCHSHQPPIAFVKADVRGLFGSVFCDFGPEFAVLDVDGEEPHTGIIASISNENQAFISCVDDERLEFEDGDLVVFSEVEGMTELNDGKPRKIKSTRPYSFTLDEDTTNYGTYVKGGIVTQVKQPKLLNFKPLREALKDPGDFLFSDFSKFDRPPLLHLAFQALDHFKAEAGRFPVAGSEEDAQKLISIATAINTGQGDLKVENVDQKLLRHFSFGAKAVLNPMAAMFGGIVGQEVVKACSGKFHPLFQFFYFDSVESLPSEPVDSSDFAPRNSRYDAQISVFGAKFQKKLEDAKVFTVGSGALGCEFLKNLALMGVSCGSQGKLTVTDDDIIEKSNLSRQFLFRDWNIGQAKSTVAASAAAVINPRFNIEALQNRVGAETENVFDDAFWENLTVVVNALDNVNARLYVDSRCLYFQKPLLESGTLGTKCNTQSVIPHLTENYGASRDPPEKQAPMCTVHSFPHNIDHCLTWARSEFEGLLEKTPAEVNAYLSSPVEYTNSMMSAGDAQARDTLERIVECLEKEKCETFQDCLTWARLRFEDYFVNRVKQLIYTFPEDAATSTGAPFWSAPKRFPRPLQYSSSDPSLLNFITATAILRAETFGIPIPEWTKNPKEAAEAVDRVIVPDFEPRQDAKIVTDEKATTLTTASVDDAAVIDDLIAKIDQCRHNLSPDFRMKPIQFEKDDDTNYHMDVIAGLANMRARNYSIPEVDKLKAKFIAGRIIPAIATSTAMATGLVCLELYKVLDGGHKVEAYRNTFANLALPLFSMAEPLPPKVVKHRDMAWTVWDRWVLKGNPTLREVLQWLEDKGLSAYSISCGSCLLFNSMFTRHKERMDKKVVDLARDVAKVELPPYRNHLDVVVACEDEDDNDVDIPLVSIYFR
B8: CSN4, Proteasome component (PCI) domain protein AT5G42970.1 (protein, UniProt Q8L5U0 1-397)
chain: MDEALTNASAIGDQRQKIEQYKLILSSVLSSNDLLQAQRFIDHILSDDVPLVVSRQLLQSFAQELGRLEPETQKEIAQFTLTQIQPRVVSFEEQALVIREKLAGLYESEQEWSKAAQMLSGIDLDSGMRAVDDNFKLSKCIQIARLYLEDDDAVNAEAFINKASFLVSNSQNEVLNLQYKVCYARILDMKRKFLEAALRYYGISQIEQRQIGDEEIDENALEQALSAAVTCTILAGAGPQRSRVLATLYKDERCSKLKIYPILQKVYLERILRRPEIDAFSEELRPHQKASLPDKSTVLDRAMIEHNLLSASKLYTNIRFDELGTLLAIDPRKAEKIAANMIGQDRMRGSIDQEEAVIHFEDDVEELQQWDQQISGLCQALNDILDGMAKKGMSVPV

These molecules were tested against T1, ACS7‐GFP‐His (Arabidopsis thaliana) (UniProt Q9STR4) (assay: affinity purification with mass spectrometry; ACS7-GFP-His overexpressed in WT Col-0 Arabidopsis mesophyll protoplasts treated with MG132; lysate (10 mM Tris-HCl pH 7.5, 150 mM NaCl, 0.5% Nonidet P40) on GFP-trap agarose overnight at 4°C; LC-MS/MS; proteins found in non-transformed control protoplasts removed; triplicate).
T1 sequence: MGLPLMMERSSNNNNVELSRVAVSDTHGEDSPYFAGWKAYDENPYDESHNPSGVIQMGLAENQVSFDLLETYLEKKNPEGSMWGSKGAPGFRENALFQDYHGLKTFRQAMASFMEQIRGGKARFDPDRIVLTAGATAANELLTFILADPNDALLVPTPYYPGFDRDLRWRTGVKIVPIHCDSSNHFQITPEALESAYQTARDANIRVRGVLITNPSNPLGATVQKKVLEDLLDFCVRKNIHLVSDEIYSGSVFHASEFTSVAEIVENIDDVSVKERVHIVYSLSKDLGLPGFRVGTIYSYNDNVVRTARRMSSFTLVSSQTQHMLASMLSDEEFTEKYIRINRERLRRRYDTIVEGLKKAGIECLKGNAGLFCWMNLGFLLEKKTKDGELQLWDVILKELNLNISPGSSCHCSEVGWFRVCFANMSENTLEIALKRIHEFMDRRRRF
With “UPL2, ubiquitin‐protein ligase 2 (from UniProt Q8H0T4 1-3658) (enzyme)” the binding was “binds”.
In the case of “Proteasome component (PCI) domain protein AT3G02200.2”, the binding is reported as “binds”.
“UPL1, ubiquitin‐protein ligase 1 (from UniProt Q8GY23 1-3681) (enzyme)” was tested, and the binding was “binds”.
“20S proteasome alpha subunit PAD1 (from UniProt P30186 1-250)” was tested, and the binding was “binds”.
With “26S proteasome regulatory complex, non‐ATPase subcomplex, Rpn2/Psmd1 subunit (AT1G04810.1) (from UniProt Q9MAT0 1-1001)” the binding was “binds”.
For “SKP1, S phase kinase‐associated protein 1 (from UniProt Q39255 1-160)”, the binding was “binds”.
For B1, the binding was “binds”.
In the case of B2, the binding is reported as “binds”.
In the case of B3, the binding is reported as “binds”.
For B4, the binding was “binds”.
In the case of B5, the binding is reported as “binds”.
For B6, the binding was “binds”.
With B7 the binding was “binds”.
With B8 the binding was “binds”.
